Reference: PubChem BioAssay AID493014 (National Center for Advancing Translational Sciences (NCATS), 2011)
The whole screen tested about 340,000 compounds, of which about 170 (0.05%) were called active. The shares of active, inactive and inconclusive entries below differ from those in the screen. The call rests on the fitted dose curve; in most records, active means well fitted inhibition curve with a large enough effect in the signal ratio, with a control signal flat (not every such curve was filed as active); inconclusive means small, poorly fitted or top-dose-only effect, or effect the other way, or a change in a side signal; inactive means flat fitted curve, though single readings scatter; the % refers to the signal ratio. Where the call is inconclusive, the potency comes from a doubtful curve fit.

Experiment: qHTS Assay to Find Inhibitors of Chronic Active B-Cell Receptor Signaling;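 on activity change, negative = inhibition: plate controls were basal doxycycline-induced cells for no effect and cells given 10 µM MG132 for full effect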
Conditions: ABC-DLBCL IkBa-CBG/CBR reporter, luminescence ratio (green luciferase fused to IkBa over red control in TMD8 lymphoma cells), 4 h; activity change, negative = inhibition: at 46.1 µM (top of the series)
In short: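 TMD8 ABC-DLBCL cells carrying doxycycline-inducible green luciferase fused to IkappaBalpha plus unfused red luciferase were exposed to compounds (up to 46 uM) for 4 hrs at 37C. Activity came from the overlap-corrected green/red luminescence ratio.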
Potency means the concentration at half of the fitted maximal effect.

Row | SMILES | activity change, negative = inhibition | Potency
1 | CC(Sc1nnc(-c2ccc(OC(F)F)cc2)n1N)C(=O)NCC1CCCO1 (stereo not given) | inactive | –
2 | CCSC1=NC(C)(C)C=C(/C=C/c2ccc(Cl)cc2Cl)N1 | inconclusive: -1.75% | –
3 | O=C(CN1C(=O)c2ccccc2S1(=O)=O)Nc1ccon1 | inconclusive: 18.3% | –
4 | COc1ccc(C(=O)Nc2nnc(SCC(=O)Nc3ccc(NC(C)=O)cc3)s2)c(OC)c1 | – | inconclusive: 1.12 µM [falling, partial curve, poor fit]
5 | Cc1cc(NCc2ccccc2)n2ncc(-c3ccccc3)c2n1 | inconclusive: -0.792% | –
6 | Cc1ccccc1N1C(S)=C(C#N)C(=O)NC1c1cccs1 (stereo not given) | – | inconclusive: 4.11 µM [falling, partial curve, poor fit]
7 | Cc1ccc(-n2ncc3c(NC4CCCCCC4)ncnc32)cc1Cl | inactive | –
8 | CN(CCc1cn[nH]c1)Cc1nc(Cc2ccccc2)no1 | inconclusive: 12.4% | –
9 | CCC(C)NC(=O)c1ccc(-n2c(=S)[nH]c3ccccc3c2=O)cc1 (stereo not given) | inactive | –
10 | c1ccc(Oc2ncnc3sccc23)cc1 | inconclusive: 1.77% | –
11 | FC(F)(F)c1nc(N2CCCC2)ncc1-c1nnnn1-c1ccc(Cl)cc1 | inconclusive: 7.91% | –
12 | N#C/C(=C(/O)c1ccco1)c1nc2ccccc2[nH]1 | – | inconclusive: 15.8 µM [falling, single point]
13 | COc1ccccc1NC(=O)CSc1nc2ccccc2c(=O)n1C | inconclusive: -15.1% | –
14 | Clc1ccccc1OCCn1nnc2ccccc21 | – | inconclusive: 22.4 µM [falling, single point]
15 | O=c1c(-c2ccc(O)cc2)coc2cc(OC3OC(CO)C(O)C(O)C3O)cc(O)c12 (stereo not given) | inconclusive: 11.6% | –
16 | Fc1cccc(COc2ccccc2CNc2ccccc2)c1 | inconclusive: 10.2% | –
17 | O=C(NCc1ccccc1)C(c1ccc(F)cc1)N(C(=O)c1csnn1)C1CCCC1 (stereo not given) | inactive | –
18 | COc1ccc(S(=O)(=O)N2CCCN(CC(=O)Nc3ccc(OC)c(Cl)c3)CC2)cc1 | inactive | –
19 | CC(/C=N/n1c(-c2ccco2)n[nH]c1=S)=C\c1ccccc1 | inactive | –
20 | COc1cc(OC)c(OC)cc1CN1CCN(S(=O)(=O)c2ccc(NC(C)=O)cc2)CC1 | – | inconclusive: 5.62 µM [falling, single point]
21 | Cc1ccc(SCCNC(=S)Nc2cc(C)cc(C)c2)cc1 | inactive | –
22 | Cc1ccc2nc(NC(=O)C3CCN(C(=O)c4ccc(F)cc4)CC3)sc2c1 | inconclusive: -6.92% | –
23 | COc1ccc(C2SCCN2C(=S)Nc2cccc(Cl)c2)cc1 (stereo not given) | inactive | –
24 | C[C@@H]1C[C@@H]2O[C@H]2/C=C\C=C\C(=O)Cc2c(Cl)c(O)cc(O)c2C(=O)O1 | – | inconclusive: 0.355 µM [falling, full curve, poor fit]
25 | Cc1ccc2sc(NC(=O)CN3C(=O)CCC3=O)nc2c1C | inconclusive: 6.63% | –
26 | CC(=O)c1ccccc1OCc1ccc(C(=O)c2ccccc2)cc1 | – | inconclusive: 15.8 µM [falling, partial curve, poor fit]
27 | Cc1[nH]c(C)c(S(=O)(=O)N2CCN(c3ccccc3)CC2)c1C(=O)N1CCCC1 | inconclusive: 0.355% | –

One compound at a time (already shown). Order of values: activity change, negative = inhibition | Potency
Cc1ccc2nc(NC(=O)C3CCN(C(=O)c4ccc(F)cc4)CC3)sc2c1 as listed: inconclusive: -6.92% | –
COc1ccc(S(=O)(=O)N2CCCN(CC(=O)Nc3ccc(OC)c(Cl)c3)CC2)cc1 as listed: inactive | –

More structures:

Row | SMILES | activity change, negative = inhibition | Potency
28 | O=C(NS(=O)(=O)N1CCCC1)C1=C(N2CCCC2)COC1=O | inactive | –
29 | NC(=O)CSc1nc2ccccc2n1Cc1ccccc1 | inconclusive: -0.805% | –
30 | CCn1cc(Br)c(C(=O)Nc2ccc(OC)cc2)n1 | inconclusive: -14.4% | –
31 | Cc1ccc(NC(=O)c2ccc(NCc3ccc(F)cc3)nc2)cc1 | inactive | –
32 | CCc1ccc(NC(=O)c2cnc(SC)nc2C)cc1 | – | inconclusive: 12.6 µM [falling, partial curve]
33 | O=S(=O)(c1cnc(Cl)c(Cl)c1)N1CCCc2ccccc21 | – | inconclusive: 18.4 µM [cytotoxic, single point]
34 | NS(=O)(=O)c1ccc(CCNC(=O)c2cc([N+](=O)[O-])ccc2N2CCCCC2)cc1 | inactive | –
35 | CC1CCCCN1C(=O)c1cc(S(=O)(=O)N2CCOCC2)ccc1Cl (stereo not given) | inactive | –
36 | CNC(=O)CN(c1cc([N+](=O)[O-])ccc1OC)S(C)(=O)=O | inconclusive: 3.62% | –
37 | COc1ccc(N2CCN(C(=O)c3ccc(Cn4c(=S)[nH]c5ccc(N6CCOCC6)cc5c4=O)cc3)CC2)cc1 | – | inconclusive: 10 µM [falling, partial curve, poor fit]
38 | CS(=O)(=O)N1CCN(c2ccnc3cc(Cl)ccc23)CC1 | inactive | –
39 | COc1ccc(CC(=O)Nc2c(C(=O)N3CCN(c4ccccc4OC)CC3)oc3ccccc23)cc1OC | inactive | –
40 | CN(c1nc2ccccc2nc1Cl)S(=O)(=O)c1ccccc1 | – | inconclusive: 14.1 µM [falling, partial curve, poor fit]
41 | CC(C)CNC(=O)c1cccc(NC(=O)CSc2ccc(Cl)cc2)c1 | inconclusive: 8.22% | –
42 | O=C(Nc1ccc2oc(-c3ccncc3)nc2c1)c1cccs1 | inconclusive: -0.717% | –
43 | O=C(CNC(=O)/C(=C\c1ccc(Br)cc1)NC(=O)c1ccccc1)OCc1ccccc1 | inconclusive: 3.62% | –
44 | Cc1ccc(-c2[nH]c(-c3ccc(C(=O)O)cc3)nc2-c2ccccc2)cc1 | inactive | –
45 | COC(=O)CN(n1cnnc1)S(=O)(=O)c1ccccc1Cl | inconclusive: -26.9% | –
46 | Cc1ccc2c(c1)C1CCCC3C1N2CC(=O)N3Cc1ccccc1 (stereo not given) | – | inconclusive: 1.03 µM [rising, full curve]
47 | Cc1ccc(NC(=O)c2ccc3c(c2)OCCO3)cc1 | – | inconclusive: 22.4 µM [falling, partial curve]
48 | CC(=O)CSc1nnc2[nH]c(=O)cc(N)n12 | inactive | –
49 | COc1ccc(S(=O)(=O)N2Cc3ccccc3CC2C(=O)Nc2nccs2)cc1OC (stereo not given) | inconclusive: 1.46% | –
50 | N#Cc1ccccc1CSc1nc2ccc(NC(=O)c3ccccc3C(=O)O)cc2s1 | – | inconclusive: 35.5 µM [falling, single point]
51 | Nc1c(C(=O)N/N=C/c2ccccc2Cl)oc2nc(-c3ccccc3)cc(-c3ccco3)c12 | inactive | –
52 | O=C(Nc1ccc(F)cc1)c1sc2cc(C(F)(F)F)cnc2c1-c1cccs1 | inconclusive: 13.9% | –
53 | CC(C)C(=O)NNS(=O)(=O)c1ccccc1[N+](=O)[O-] | inactive | –
54 | Cc1cccc(Cn2c(N3CCN(c4ccccc4)CC3)nc3c2c(=O)n(C)c(=O)n3C)c1 | inconclusive: -0.155% | –

Row | SMILES | activity change, negative = inhibition | Potency
55 | O=C(CCCCCN1C(=O)c2cccc3cccc(c23)C1=O)N1CCOCC1 | – | inconclusive: 18.4 µM [falling, partial curve, poor fit]
56 | CC/C=C/C(=O)N1CC2(CC(c3cccc(NC(=O)COc4ccc(Cl)cc4)c3)=NO2)C[C@H]1C(N)=O (stereo not given in full) | – | inconclusive: 17.8 µM [falling, single point]
57 | Cc1ccccc1Nc1nc(-c2cccnc2)nc2ccccc12 | inconclusive: 10.3% | –
58 | COC(=O)C1=C(C)NC(C)=C(C(=O)OC(C)C)C1c1cccc2nonc12 (stereo not given) | – | inconclusive: 8.91 µM [falling, partial curve, poor fit]
59 | O=C(Nc1ccc(Cl)cc1)C1CCCN(C2=NS(=O)(=O)c3ccccc32)C1 (stereo not given) | inconclusive: 12% | –
60 | CCCc1cc(=O)n2[nH]c(-c3ccc(OC)cc3)nc2n1 | – | inconclusive: 3.66 µM [falling, partial curve, poor fit]
61 | Cc1ccc(S(=O)(=O)N2C[C@@H]3[C@H]4CC[C@H](C4)[C@@H]3[C@@H](C)[C@@H]2c2ccn(Cc3ccccc3)c2)cc1 | inconclusive: -5.69% | –
62 | COc1ccc(NC(=O)NCc2ccc3c(c2)OCO3)cc1OC | – | inconclusive: 11.2 µM [falling, partial curve, poor fit]
63 | Cc1cc(NC(=O)C(C)(C)C)no1 | inconclusive: 3.22% | –
64 | CCSc1nc(-c2ccco2)ccc1C#N | inactive | –
65 | Nc1nc(-c2ccc(-c3ccccc3)cc2)cs1 | – | inconclusive: 20 µM [falling, partial curve]
66 | COc1ccc(Br)cc1CNC(=O)Cn1nc(C)n2cccc2c1=O | inactive | –
67 | CCOC(=O)C1CCN(S(=O)(=O)c2c[nH]c(=O)[nH]c2=O)CC1 | inconclusive: 7.14% | –
68 | O=C(CNCc1ccc(F)cc1)Nc1ccccc1[N+](=O)[O-] | inconclusive: 2.92% | –
69 | COc1ccc(N2C(S)=C(C#N)C(=O)NC23CCCCC3)cc1 | – | inconclusive: 12.6 µM [falling, partial curve, poor fit]
70 | C/C(=N\Nc1ccc(Cl)c(C(=O)O)c1)c1ccc[nH]1 | – | inconclusive: 35.5 µM [falling, single point]
71 | CCOC(=O)[C@H]1[C@H]2COc3ccc(Cl)cc3[C@@H]2N2C(=O)c3ccccc3NC(=O)[C@@]12C | inconclusive: 1.24% | –
72 | Cc1ccc(C(CC(=O)N2CCNCC2)c2ccccc2)c(O)c1C (stereo not given) | inconclusive: 12.3% | –
73 | N#C/C(=C\c1ccc(OCc2ccc(Br)cc2)cc1)C(=O)Nc1cccc(C(=O)O)c1 | inactive | –
74 | Cc1cc(O)c(-c2ccno2)cc1Cl | inactive | –
75 | O=C(CSc1nnc(-c2c[nH]c3ccccc23)o1)NCC1CCCO1 (stereo not given) | inactive | –
76 | O=c1ccc(OCCOc2ccccc2)nn1-c1ccccc1 | inconclusive: 7.79% | –
77 | O=C(CN1C(=O)/C(=C\c2ccccc2F)SC1=S)Nc1nc2ccccc2s1 | inconclusive: -8.02% | –
78 | OC(COc1ccc(CNCCc2ccc(C(F)(F)F)cc2)cc1)CN1CCCCC1 (stereo not given) | – | inconclusive: 22.4 µM [falling, single point]
79 | CN(C)S(=O)(=O)c1cccc(-c2nn(-c3ccccc3)cc2/C=C(/C#N)C(=O)NCc2ccco2)c1 | inconclusive: 1.48% | –
80 | COC(=O)COc1ccc(S(=O)(=O)N2CCN(c3ccccc3)CC2)cc1 | inactive | –

Reformatted: entries from further up.
Row,SMILES,"activity change, negative = inhibition",Potency
59,O=C(Nc1ccc(Cl)cc1)C1CCCN(C2=NS(=O)(=O)c3ccccc32)C1 (stereo not given),inconclusive: 12%,–
60,CCCc1cc(=O)n2[nH]c(-c3ccc(OC)cc3)nc2n1,–,"inconclusive: 3.66 µM [falling, partial curve, poor fit]"
